Results from patent US20100028358A1, “Compositions and Methods for Controlling Tissue Factor Signaling Specificity” (priority 2005, published 2010).
No constants are given. Whether binding was seen depends on the method and setting. For some assays here: Binding seen in cells or lysates may run through a third protein. Some binding calls cover weakened binding; strength is not graded here.

Amino acid sequences for entries named in this document (tags omitted). Residues count along the entry.
UniProt P13726, residues 33-295: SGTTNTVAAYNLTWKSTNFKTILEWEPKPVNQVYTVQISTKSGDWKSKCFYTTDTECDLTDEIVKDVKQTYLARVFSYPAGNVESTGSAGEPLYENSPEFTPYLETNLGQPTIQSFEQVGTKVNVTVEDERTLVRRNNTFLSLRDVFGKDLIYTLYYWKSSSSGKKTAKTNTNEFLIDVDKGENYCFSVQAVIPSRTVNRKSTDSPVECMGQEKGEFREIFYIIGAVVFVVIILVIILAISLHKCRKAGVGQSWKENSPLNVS
UniProt P07237, residues 18-508: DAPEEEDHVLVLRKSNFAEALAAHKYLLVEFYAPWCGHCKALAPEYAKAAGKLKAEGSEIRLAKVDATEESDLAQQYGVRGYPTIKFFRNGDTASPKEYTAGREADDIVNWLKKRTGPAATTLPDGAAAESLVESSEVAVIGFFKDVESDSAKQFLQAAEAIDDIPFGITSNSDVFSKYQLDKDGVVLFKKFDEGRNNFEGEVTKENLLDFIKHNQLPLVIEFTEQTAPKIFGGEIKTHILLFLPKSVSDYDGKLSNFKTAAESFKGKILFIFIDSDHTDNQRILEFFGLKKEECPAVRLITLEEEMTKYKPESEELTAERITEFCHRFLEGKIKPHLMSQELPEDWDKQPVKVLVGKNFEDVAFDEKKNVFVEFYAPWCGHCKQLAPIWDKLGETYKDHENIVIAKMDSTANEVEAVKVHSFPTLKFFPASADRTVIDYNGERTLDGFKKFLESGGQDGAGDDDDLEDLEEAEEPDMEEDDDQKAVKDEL

How the values were obtained:
[1] = target: tissue factor (TF), cell surface-expressed wild-type (human) (UniProt P13726); test: biotin switch method, PDI immunoprecipitation from high Ca^2+ HaCaT cells
[2] = target: tissue factor (TF), cell surface-expressed wild-type (human) (UniProt P13726); test: co-immunoprecipitation from NHS surface-biotinylated HaCaT cells
[3] = target: tissue factor (TF), cell surface-expressed wild-type (human) (UniProt P13726); test: summary of the examples
[4] = target: tissue factor (TF), cell surface-expressed wild-type (human) (UniProt P13726); test: co-immunoprecipitation of NHS surface-biotinylated PDI with TF, Western blotting
[5] = target: tissue factor (TF), cell surface-expressed wild-type (human) (UniProt P13726); test: MPB thiol labelling of the cell surface and co-precipitation with TF from high Ca^2+ HaCaT cells

- binding [1]: binds
- binding [2]: binds
- binding [3]: binds
- binding [4]: binds
- binding [5]: binds
Substance: protein disulfide isomerase (PDI), cell surface (from UniProt P07237 18-508) (enzyme)
